Compound in the assay: Nc1ncnc2c1ncn2[C@@H]1O[C@H](COP(=O)(O)OP(=O)(O)OP(=O)(O)O)[C@@H](O)[C@H]1O [adenosine triphosphate]
Kind of assay: NP40-soluble protein abundance relative to vehicle (solubility fold change) (ratio); higher = more soluble protein in presence of ATP. Summed up:
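Jurkat crude lysate prepared with a Dounce homogeniser was treated at eight concentrations spanning 0.1 to 10 mM, 10 min at room temperature then 3 min at 37 °C. Solubilisation with 0.8% NP40 and benzonase and ultracentrifugation preceded TMT labelling of the supernatant for LC-MS/MS. Fold change against the detergent-processed vehicle was determined per replicate from vsn-normalised intensities, across three independent experiments.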

Amino acid sequences for entries named in this document (tags omitted). A change or cut given only in a name is not applied to a line headed by its entry.
UniProt Q13523: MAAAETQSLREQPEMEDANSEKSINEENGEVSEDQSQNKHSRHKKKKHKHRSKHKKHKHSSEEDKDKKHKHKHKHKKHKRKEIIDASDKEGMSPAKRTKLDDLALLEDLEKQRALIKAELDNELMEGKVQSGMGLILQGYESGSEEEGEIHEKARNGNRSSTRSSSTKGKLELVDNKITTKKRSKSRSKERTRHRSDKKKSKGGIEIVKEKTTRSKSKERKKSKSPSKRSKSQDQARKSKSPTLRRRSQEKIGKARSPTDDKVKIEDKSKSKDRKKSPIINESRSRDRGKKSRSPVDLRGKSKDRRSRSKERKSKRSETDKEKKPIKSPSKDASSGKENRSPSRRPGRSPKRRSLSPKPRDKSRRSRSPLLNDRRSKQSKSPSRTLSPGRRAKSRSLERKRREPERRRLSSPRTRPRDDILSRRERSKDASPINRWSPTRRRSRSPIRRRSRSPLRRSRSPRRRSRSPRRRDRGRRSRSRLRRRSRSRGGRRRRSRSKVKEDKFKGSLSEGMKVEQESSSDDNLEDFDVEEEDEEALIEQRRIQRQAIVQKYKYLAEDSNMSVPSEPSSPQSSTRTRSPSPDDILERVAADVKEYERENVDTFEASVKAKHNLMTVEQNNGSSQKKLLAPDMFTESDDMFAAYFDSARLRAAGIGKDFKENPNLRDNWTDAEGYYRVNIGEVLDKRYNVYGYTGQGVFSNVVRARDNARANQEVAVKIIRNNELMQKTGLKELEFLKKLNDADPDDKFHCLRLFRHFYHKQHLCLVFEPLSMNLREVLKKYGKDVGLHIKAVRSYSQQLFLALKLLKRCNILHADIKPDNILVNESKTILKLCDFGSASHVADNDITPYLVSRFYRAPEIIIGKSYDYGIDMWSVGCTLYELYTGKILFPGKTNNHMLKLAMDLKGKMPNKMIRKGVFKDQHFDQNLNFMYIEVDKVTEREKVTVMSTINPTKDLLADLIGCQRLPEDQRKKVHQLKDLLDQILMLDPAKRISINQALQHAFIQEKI
UniProt Q13619, whole entry: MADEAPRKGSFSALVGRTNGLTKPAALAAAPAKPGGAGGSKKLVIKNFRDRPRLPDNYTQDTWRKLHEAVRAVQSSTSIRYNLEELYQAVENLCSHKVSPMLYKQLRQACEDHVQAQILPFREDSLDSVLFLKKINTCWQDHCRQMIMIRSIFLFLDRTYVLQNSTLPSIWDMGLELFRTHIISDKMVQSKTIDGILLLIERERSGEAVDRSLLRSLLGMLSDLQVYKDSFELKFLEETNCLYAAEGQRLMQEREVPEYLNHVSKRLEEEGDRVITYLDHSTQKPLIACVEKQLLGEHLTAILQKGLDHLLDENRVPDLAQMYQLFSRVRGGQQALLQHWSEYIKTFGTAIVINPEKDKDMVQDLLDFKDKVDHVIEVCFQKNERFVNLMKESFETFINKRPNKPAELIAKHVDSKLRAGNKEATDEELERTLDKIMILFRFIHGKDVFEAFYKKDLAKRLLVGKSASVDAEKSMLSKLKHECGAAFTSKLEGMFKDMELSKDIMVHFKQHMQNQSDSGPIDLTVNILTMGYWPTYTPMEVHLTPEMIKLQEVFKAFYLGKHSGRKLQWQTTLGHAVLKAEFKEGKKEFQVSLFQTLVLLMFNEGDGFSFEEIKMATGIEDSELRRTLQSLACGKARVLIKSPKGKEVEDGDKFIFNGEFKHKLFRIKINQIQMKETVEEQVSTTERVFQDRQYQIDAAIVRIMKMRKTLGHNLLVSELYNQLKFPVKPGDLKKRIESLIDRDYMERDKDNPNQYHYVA
UniProt Q08170: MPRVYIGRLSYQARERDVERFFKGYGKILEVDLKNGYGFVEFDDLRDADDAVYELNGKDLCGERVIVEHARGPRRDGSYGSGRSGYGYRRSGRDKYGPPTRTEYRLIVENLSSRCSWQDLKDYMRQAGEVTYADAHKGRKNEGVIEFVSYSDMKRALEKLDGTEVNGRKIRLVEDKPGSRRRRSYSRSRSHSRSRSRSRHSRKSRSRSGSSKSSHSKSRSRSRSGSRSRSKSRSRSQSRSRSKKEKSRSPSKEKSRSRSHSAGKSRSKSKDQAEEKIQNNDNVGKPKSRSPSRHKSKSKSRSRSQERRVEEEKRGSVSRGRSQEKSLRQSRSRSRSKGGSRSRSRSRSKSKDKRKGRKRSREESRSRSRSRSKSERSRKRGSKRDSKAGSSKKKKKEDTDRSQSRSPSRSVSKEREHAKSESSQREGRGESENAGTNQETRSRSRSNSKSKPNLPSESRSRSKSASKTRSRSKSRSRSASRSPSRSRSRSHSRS
UniProt Q12986: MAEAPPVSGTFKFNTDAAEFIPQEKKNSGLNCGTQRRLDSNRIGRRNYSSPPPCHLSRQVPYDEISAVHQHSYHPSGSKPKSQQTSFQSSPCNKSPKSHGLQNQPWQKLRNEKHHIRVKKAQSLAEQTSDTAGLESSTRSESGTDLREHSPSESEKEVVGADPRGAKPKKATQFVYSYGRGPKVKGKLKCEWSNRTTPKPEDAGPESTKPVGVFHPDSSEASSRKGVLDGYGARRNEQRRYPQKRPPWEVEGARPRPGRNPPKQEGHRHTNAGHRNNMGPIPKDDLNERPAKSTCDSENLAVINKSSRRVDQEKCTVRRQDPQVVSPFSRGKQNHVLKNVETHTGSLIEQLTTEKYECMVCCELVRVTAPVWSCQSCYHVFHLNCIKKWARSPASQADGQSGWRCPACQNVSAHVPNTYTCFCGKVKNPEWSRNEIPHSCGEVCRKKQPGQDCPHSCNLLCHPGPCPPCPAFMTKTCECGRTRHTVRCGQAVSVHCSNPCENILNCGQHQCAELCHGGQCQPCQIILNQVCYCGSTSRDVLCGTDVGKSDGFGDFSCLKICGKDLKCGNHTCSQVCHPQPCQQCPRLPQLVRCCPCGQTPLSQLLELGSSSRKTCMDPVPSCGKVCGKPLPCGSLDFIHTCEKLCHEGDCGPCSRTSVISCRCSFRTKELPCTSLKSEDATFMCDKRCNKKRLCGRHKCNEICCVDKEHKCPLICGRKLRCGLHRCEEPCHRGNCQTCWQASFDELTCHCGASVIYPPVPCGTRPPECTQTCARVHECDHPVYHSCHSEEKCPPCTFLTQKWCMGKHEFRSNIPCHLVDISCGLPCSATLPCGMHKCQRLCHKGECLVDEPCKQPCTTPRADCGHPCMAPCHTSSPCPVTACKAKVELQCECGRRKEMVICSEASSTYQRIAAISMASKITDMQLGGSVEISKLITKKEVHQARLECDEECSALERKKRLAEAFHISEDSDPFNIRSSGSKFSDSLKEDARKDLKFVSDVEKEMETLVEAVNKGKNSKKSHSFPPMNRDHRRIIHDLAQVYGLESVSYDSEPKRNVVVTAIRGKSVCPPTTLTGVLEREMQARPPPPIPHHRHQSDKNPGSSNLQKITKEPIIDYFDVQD
UniProt Q14011: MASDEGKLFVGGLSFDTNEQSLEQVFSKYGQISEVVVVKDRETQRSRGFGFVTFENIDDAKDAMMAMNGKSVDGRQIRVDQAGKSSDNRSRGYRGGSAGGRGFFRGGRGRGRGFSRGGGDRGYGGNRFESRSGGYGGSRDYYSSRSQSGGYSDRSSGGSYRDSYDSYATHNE
UniProt Q13057: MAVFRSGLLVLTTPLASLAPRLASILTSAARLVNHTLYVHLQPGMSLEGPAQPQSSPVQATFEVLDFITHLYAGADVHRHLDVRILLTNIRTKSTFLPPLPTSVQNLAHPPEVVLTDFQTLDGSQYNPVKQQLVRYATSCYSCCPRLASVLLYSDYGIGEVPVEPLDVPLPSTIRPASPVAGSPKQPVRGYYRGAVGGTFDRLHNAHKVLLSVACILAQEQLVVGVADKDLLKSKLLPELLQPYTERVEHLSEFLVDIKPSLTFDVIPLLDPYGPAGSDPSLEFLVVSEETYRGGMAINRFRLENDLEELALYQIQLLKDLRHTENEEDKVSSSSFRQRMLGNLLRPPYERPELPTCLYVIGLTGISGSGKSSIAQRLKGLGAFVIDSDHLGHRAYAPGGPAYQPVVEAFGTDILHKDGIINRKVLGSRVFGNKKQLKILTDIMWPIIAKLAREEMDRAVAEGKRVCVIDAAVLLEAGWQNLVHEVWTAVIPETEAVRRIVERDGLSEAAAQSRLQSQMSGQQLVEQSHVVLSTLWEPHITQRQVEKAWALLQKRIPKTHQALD
UniProt Q07021: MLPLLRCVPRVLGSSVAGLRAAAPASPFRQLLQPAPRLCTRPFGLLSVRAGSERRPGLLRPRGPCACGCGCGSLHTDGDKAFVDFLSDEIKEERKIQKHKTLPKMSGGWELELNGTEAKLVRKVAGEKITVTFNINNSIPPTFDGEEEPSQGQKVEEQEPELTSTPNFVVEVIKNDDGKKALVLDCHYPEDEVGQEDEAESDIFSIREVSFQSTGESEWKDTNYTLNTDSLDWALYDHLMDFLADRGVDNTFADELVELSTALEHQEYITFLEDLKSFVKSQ
UniProt Q14142: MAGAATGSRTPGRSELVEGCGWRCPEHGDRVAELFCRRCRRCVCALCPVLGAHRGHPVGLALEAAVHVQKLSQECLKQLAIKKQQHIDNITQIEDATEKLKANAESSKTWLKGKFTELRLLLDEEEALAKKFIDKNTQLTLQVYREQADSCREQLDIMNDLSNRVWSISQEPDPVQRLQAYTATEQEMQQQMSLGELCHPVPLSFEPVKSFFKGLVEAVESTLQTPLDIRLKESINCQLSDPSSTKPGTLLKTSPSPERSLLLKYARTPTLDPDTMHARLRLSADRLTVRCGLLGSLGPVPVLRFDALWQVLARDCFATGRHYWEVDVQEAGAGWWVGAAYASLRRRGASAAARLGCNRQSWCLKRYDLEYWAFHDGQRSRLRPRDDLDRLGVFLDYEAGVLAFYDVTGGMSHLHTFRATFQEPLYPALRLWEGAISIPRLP
UniProt Q01543: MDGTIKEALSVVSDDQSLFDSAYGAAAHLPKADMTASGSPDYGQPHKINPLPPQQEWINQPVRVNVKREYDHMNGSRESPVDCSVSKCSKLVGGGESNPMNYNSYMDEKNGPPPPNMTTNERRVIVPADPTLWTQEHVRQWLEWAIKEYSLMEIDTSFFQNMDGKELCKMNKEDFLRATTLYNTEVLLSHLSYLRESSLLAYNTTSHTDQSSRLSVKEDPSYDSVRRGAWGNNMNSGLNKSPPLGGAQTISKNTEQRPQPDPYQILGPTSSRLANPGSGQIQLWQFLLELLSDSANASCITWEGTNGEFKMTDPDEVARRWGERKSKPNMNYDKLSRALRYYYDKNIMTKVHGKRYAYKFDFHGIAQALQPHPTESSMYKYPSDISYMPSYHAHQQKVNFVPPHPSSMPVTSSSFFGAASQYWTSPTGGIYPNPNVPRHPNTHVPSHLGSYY
UniProt Q13409, whole entry: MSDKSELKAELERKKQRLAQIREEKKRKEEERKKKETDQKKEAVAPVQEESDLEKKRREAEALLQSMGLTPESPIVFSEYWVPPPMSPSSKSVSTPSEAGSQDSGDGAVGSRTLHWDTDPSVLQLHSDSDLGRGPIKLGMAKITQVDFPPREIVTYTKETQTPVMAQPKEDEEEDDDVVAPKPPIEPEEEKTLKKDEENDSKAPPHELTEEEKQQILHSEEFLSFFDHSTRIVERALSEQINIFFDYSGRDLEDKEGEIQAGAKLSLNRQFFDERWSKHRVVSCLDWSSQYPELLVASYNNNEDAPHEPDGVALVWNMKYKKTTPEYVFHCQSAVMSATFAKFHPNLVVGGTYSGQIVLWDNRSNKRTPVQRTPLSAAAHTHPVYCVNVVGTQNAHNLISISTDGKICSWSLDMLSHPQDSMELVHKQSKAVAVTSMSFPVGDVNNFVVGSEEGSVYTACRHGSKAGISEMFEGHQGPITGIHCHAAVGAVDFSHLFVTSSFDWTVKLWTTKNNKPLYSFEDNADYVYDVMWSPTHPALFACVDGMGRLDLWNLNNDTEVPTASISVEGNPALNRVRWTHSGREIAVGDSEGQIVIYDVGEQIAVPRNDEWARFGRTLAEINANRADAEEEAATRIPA
UniProt Q12805: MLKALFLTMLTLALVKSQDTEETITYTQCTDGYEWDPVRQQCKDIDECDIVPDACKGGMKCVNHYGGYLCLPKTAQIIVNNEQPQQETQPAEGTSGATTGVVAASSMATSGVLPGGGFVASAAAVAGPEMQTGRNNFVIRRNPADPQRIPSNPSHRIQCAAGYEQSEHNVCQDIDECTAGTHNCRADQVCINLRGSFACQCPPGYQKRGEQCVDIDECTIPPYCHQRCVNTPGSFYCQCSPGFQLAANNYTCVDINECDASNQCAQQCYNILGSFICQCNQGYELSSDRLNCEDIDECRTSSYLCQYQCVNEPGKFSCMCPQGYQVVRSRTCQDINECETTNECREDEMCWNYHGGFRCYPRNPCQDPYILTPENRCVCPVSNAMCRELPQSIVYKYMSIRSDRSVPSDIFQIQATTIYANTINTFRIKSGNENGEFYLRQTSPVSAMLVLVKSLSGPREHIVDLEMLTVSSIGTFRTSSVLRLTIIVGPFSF

± gives the standard deviation of the averaged measurements. The list shows a part of the results, in another mix than the full data. Most values lie at the level of the controls, where differences are scatter.

For PRPF4B (UniProt Q13523), the NP40-soluble protein abundance reads like this: (concentration: 0.1mM) 1.07 ± 0.021; (concentration: 0.5mM) 1.28 ± 0.036; (concentration: 1mM) 1.29 ± 0.015; (concentration: 2mM) 1.329 ± 0.011; (concentration: 4mM) 1.46 ± 0.018; (concentration: 6mM) 1.6 ± 0.061. The NP40-soluble protein abundance is, setting by setting: (concentration: 8mM) 1.68 ± 0.041; (concentration: 10mM) 1.8 ± 0.022.
For the target CUL4A (UniProt Q13619), the NP40-soluble protein abundance was 1.04 ± 0.093 (concentration: 0.1mM); 1.02 ± 0.058 (concentration: 0.5mM); 0.99 ± 0.13 (concentration: 1mM); 0.955 ± 0.08 (concentration: 2mM); 0.918 ± 0.08 (concentration: 4mM); 0.89 ± 0.098 (concentration: 6mM). Besides, the NP40-soluble protein abundance stood at 0.963 ± 0.047 (concentration: 8mM) and 0.94 ± 0.047 (concentration: 10mM).
Turning to UniProt Q08170, the NP40-soluble protein abundance (concentration: 0.1mM) stood at 1.06 ± 0.069; the NP40-soluble protein abundance (concentration: 0.5mM) came out at 1.52 ± 0.095; the NP40-soluble protein abundance (concentration: 1mM) came to 1.58 ± 0.12; the NP40-soluble protein abundance (concentration: 2mM) turned out to be 1.68 ± 0.08; the NP40-soluble protein abundance (concentration: 4mM) was found to be 1.66 ± 0.095; the NP40-soluble protein abundance (concentration: 6mM) came out at 1.81 ± 0.058. Further, the NP40-soluble protein abundance is, setting by setting: (concentration: 8mM) 1.68 ± 0.052; (concentration: 10mM) 1.64 ± 0.073.
Take NFX1 (UniProt Q12986): the NP40-soluble protein abundance (concentration: 0.1mM) came out at 1.06 ± 0.057; the NP40-soluble protein abundance (concentration: 0.5mM) was determined as 1.1 ± 0.023; the NP40-soluble protein abundance (concentration: 1mM) came out at 1.07 ± 0.08; the NP40-soluble protein abundance (concentration: 2mM) was determined as 1.21 ± 0.042; the NP40-soluble protein abundance (concentration: 4mM) stood at 1.34 ± 0.041; the NP40-soluble protein abundance (concentration: 6mM) was determined as 1.46 ± 0.046. Further, the NP40-soluble protein abundance runs as follows: (concentration: 8mM) 1.62 ± 0.031; (concentration: 10mM) 1.66 ± 0.11.
Regarding CIRBP (UniProt Q14011), the NP40-soluble protein abundance (concentration: 0.1mM) came to 1 ± 0.035; the NP40-soluble protein abundance (concentration: 0.5mM) amounted to 1.02 ± 0.051; the NP40-soluble protein abundance (concentration: 1mM) was 0.999 ± 0.062; the NP40-soluble protein abundance (concentration: 2mM) is 1.02 ± 0.029; the NP40-soluble protein abundance (concentration: 4mM) turned out to be 1.04 ± 0.033; the NP40-soluble protein abundance (concentration: 6mM) was 1.1 ± 0.061. Besides, the NP40-soluble protein abundance (concentration: 8mM) is 1.09 ± 0.051 and the NP40-soluble protein abundance (concentration: 10mM) worked out at 1.1 ± 0.025.
Take UniProt Q02078-2|Q02078-6: the NP40-soluble protein abundance runs as follows: (concentration: 0.1mM) 0.954 ± 0.05; (concentration: 0.5mM) 0.94 ± 0.023; (concentration: 1mM) 0.954 ± 0.086; (concentration: 2mM) 0.939 ± 0.046; (concentration: 4mM) 0.936 ± 0.065; (concentration: 6mM) 0.926 ± 0.036. For the same target, the NP40-soluble protein abundance by setting is: (concentration: 8mM) 0.907 ± 0.032; (concentration: 10mM) 0.949 ± 0.048.
As for UniProt Q13057 and related entries, the NP40-soluble protein abundance is, setting by setting: (concentration: 0.1mM) 1.06 ± 0.086; (concentration: 0.5mM) 1.07 ± 0.092; (concentration: 1mM) 1.01 ± 0.061; (concentration: 2mM) 1.02 ± 0.072; (concentration: 4mM) 1.02 ± 0.086; (concentration: 6mM) 0.962 ± 0.094. Besides, the NP40-soluble protein abundance stood at 1.04 ± 0.095 (concentration: 8mM) and 1.02 ± 0.075 (concentration: 10mM).
Regarding C1QBP (UniProt Q07021), the NP40-soluble protein abundance runs as follows: (concentration: 0.1mM) 0.667 ± 0.29; (concentration: 0.5mM) 0.954 ± 0.12; (concentration: 1mM) 1.15 ± 0.48; (concentration: 2mM) 0.69 ± 0.36; (concentration: 4mM) 1.21 ± 0.26; (concentration: 6mM) 0.585 ± 0.18. Moreover, the NP40-soluble protein abundance reads like this: (concentration: 8mM) 1.19 ± 0.24; (concentration: 10mM) 0.587 ± 0.2.
Consider TRIM14 (UniProt Q14142), for which the NP40-soluble protein abundance came to 1.01 ± 0.097 (concentration: 0.1mM); 1.03 ± 0.12 (concentration: 0.5mM); 1.08 ± 0.044 (concentration: 1mM); 1.05 ± 0.037 (concentration: 2mM); 1.13 ± 0.088 (concentration: 4mM); 1.1 ± 0.083 (concentration: 6mM). Further, the NP40-soluble protein abundance reads like this: (concentration: 8mM) 1.17 ± 0.067; (concentration: 10mM) 1.27 ± 0.2.
Take UniProt Q01543 and related entries: the NP40-soluble protein abundance runs as follows: (concentration: 0.1mM) 0.983 ± 0.025; (concentration: 0.5mM) 0.999 ± 0.029; (concentration: 1mM) 0.989 ± 0.05; (concentration: 2mM) 0.997 ± 0.013; (concentration: 4mM) 0.996 ± 0.032; (concentration: 6mM) 1.01 ± 0.048. Also, the NP40-soluble protein abundance stood at 0.969 ± 0.033 (concentration: 8mM) and 0.9608 ± 0.0033 (concentration: 10mM).
Consider UniProt Q13409 and related entries, for which the NP40-soluble protein abundance was 1 ± 0.073 (concentration: 0.1mM); 0.993 ± 0.1 (concentration: 0.5mM); 0.957 ± 0.063 (concentration: 1mM); 0.957 ± 0.037 (concentration: 2mM); 0.953 ± 0.059 (concentration: 4mM); 0.994 ± 0.18 (concentration: 6mM). The NP40-soluble protein abundance (concentration: 8mM) came out at 0.975 ± 0.089 and the NP40-soluble protein abundance (concentration: 10mM) worked out at 0.973 ± 0.074.
With UniProt Q12805 and related entries, the NP40-soluble protein abundance (concentration: 0.1mM) came out at 1.05 ± 0.052; the NP40-soluble protein abundance (concentration: 0.5mM) was determined as 0.986 ± 0.036; the NP40-soluble protein abundance (concentration: 1mM) stood at 1.03 ± 0.091; the NP40-soluble protein abundance (concentration: 2mM) stood at 1.04 ± 0.052; the NP40-soluble protein abundance (concentration: 4mM) came to 1.06 ± 0.075; the NP40-soluble protein abundance (concentration: 6mM) was determined as 1 ± 0.088. For the same target, the NP40-soluble protein abundance by setting is: (concentration: 8mM) 1.05 ± 0.023; (concentration: 10mM) 1.04 ± 0.025.

For the origin of these results see the supplement of paper PMC6411743.
